Reference: the supplement of paper PMC12823440, “Inhibitors supercharge kinase turnover through native proteolytic circuits” (Nature, 2025)
Where a name gives a salt, the structure may show the parent alone. Some of the results follow. The calls rarely recur for the same compound in another form.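 Kinases were expressed as nanoluciferase fusions in K562 cells and luminescence was read every 4 h between 2 and 18 h as percent of control, DMSO set to 100% and a positive control to 0%. A time point counts as decreased when the signal drops significantly (2 sigma). The hit call is the authors' own, does not follow from the count of time points alone, and its rule is not shown.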

By UniProt entry, the sequences of proteins in these tests, tags left out. Where a name states a change or a piece, a line headed by the entry shows the natural chain unless it says otherwise.
UniProt Q9UQM7, whole entry: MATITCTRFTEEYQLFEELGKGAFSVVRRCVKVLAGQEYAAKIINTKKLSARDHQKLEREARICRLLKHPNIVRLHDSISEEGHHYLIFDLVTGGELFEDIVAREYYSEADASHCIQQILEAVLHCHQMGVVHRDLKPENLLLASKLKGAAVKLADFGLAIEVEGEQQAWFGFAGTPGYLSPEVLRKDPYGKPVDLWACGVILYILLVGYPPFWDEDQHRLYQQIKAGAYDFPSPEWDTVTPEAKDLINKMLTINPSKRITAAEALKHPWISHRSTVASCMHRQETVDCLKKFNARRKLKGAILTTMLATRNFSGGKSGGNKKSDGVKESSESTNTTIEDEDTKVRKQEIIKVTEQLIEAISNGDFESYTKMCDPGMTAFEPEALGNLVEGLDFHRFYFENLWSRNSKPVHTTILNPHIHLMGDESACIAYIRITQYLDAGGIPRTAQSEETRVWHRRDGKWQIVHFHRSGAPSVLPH
UniProt Q13555: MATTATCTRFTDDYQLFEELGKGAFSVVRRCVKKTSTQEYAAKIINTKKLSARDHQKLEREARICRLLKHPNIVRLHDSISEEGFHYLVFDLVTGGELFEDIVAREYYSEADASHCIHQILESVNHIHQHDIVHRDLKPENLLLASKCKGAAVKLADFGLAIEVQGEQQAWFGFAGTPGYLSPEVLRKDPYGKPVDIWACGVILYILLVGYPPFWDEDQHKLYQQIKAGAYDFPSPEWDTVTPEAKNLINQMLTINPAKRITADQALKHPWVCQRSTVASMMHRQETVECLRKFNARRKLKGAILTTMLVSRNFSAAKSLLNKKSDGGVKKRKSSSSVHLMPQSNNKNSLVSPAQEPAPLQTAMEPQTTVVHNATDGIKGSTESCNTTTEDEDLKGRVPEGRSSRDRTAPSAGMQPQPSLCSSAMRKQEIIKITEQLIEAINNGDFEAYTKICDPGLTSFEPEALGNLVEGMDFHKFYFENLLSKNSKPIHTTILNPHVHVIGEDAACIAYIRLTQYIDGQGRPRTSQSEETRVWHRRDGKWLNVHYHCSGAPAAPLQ
UniProt Q15131: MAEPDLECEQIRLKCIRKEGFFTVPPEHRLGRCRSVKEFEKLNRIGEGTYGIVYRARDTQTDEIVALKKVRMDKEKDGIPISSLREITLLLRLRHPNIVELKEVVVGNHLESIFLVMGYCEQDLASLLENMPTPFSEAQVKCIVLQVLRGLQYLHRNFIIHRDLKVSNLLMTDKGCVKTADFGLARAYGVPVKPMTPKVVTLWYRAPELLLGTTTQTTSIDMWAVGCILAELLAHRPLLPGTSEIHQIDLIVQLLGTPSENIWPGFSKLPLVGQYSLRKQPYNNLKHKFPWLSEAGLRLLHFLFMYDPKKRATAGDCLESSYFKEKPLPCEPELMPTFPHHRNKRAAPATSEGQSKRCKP
UniProt Q00526: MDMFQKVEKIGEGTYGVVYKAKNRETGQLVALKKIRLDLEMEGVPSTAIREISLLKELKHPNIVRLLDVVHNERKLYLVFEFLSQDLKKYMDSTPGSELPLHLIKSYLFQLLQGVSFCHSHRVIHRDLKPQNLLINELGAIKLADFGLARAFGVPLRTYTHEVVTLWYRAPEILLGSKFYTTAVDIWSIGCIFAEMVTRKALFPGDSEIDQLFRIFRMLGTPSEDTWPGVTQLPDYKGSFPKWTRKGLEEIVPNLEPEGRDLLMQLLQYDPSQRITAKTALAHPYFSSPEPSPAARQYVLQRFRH
UniProt P11802: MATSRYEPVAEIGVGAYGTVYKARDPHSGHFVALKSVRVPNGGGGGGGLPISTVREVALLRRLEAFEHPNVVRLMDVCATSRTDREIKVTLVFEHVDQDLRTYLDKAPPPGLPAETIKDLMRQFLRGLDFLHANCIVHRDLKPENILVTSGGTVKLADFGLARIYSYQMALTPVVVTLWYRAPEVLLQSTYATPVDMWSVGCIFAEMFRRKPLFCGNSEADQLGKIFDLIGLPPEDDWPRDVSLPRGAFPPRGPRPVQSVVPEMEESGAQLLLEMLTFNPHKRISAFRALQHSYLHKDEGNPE
UniProt Q00534, whole entry: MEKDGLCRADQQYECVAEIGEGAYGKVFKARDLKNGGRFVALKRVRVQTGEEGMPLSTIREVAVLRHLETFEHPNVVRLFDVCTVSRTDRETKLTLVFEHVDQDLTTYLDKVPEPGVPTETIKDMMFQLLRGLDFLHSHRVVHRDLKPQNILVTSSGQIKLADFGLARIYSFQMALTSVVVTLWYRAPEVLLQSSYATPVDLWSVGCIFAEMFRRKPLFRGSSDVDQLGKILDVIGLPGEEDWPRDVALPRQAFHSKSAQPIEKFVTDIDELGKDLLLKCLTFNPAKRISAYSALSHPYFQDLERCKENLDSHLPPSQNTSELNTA
UniProt P50613: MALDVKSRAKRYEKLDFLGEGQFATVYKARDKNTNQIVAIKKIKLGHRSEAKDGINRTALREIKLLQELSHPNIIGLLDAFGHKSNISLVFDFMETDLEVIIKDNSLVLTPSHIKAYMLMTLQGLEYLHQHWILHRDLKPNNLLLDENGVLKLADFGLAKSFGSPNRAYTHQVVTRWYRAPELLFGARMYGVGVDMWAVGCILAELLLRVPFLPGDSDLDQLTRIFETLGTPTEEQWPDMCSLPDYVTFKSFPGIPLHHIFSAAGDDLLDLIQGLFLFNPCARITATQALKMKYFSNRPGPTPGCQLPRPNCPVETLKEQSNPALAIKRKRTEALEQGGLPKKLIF
UniProt P50750, whole entry: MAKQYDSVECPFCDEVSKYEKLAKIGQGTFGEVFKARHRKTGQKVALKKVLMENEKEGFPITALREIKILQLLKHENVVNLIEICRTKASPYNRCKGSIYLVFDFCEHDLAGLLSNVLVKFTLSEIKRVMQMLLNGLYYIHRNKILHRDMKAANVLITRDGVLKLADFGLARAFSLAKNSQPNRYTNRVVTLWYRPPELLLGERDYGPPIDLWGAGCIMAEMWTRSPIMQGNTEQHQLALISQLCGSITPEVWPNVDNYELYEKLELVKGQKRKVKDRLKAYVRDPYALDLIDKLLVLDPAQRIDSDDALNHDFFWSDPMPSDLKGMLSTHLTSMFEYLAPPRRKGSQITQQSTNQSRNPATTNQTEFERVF
UniProt O96017, whole entry: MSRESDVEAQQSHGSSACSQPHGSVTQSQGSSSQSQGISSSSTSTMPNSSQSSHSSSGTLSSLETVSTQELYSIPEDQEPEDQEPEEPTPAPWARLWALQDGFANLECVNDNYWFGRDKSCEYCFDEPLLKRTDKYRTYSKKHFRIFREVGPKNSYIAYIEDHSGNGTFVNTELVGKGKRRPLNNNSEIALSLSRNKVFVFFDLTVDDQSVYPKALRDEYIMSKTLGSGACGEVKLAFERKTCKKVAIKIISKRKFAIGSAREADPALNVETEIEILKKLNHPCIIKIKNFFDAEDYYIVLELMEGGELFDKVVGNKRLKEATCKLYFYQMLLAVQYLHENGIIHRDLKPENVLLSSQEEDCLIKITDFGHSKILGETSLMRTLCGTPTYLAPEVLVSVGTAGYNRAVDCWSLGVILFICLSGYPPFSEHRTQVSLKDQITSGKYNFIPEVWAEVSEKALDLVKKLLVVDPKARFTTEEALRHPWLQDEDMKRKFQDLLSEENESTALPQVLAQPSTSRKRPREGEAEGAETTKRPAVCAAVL
UniProt P07333, whole entry: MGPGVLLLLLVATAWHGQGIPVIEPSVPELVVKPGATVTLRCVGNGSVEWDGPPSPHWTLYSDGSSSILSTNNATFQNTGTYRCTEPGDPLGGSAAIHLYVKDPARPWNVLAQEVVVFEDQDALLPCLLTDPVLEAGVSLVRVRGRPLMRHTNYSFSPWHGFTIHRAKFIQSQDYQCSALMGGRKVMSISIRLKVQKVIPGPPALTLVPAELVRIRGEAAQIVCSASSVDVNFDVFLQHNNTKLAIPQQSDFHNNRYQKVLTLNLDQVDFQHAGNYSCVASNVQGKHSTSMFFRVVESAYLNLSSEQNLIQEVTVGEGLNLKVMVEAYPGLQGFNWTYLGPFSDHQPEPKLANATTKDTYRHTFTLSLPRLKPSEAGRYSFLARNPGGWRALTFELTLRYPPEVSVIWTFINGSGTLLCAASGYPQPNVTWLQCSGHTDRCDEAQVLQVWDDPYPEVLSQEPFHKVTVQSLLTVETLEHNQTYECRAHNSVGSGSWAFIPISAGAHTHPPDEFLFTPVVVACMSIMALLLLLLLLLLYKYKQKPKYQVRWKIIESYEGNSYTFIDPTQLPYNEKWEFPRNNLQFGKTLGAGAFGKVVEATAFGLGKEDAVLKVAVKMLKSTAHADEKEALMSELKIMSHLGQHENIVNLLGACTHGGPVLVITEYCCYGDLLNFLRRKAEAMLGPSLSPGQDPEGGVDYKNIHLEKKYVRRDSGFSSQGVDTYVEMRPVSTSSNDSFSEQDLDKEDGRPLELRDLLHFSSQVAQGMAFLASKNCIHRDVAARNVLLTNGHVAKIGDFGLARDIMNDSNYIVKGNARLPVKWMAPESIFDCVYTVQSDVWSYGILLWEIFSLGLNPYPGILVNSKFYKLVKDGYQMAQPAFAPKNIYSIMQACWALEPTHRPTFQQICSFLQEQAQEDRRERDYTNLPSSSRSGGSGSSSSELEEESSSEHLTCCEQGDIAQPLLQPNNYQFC
UniProt P48729: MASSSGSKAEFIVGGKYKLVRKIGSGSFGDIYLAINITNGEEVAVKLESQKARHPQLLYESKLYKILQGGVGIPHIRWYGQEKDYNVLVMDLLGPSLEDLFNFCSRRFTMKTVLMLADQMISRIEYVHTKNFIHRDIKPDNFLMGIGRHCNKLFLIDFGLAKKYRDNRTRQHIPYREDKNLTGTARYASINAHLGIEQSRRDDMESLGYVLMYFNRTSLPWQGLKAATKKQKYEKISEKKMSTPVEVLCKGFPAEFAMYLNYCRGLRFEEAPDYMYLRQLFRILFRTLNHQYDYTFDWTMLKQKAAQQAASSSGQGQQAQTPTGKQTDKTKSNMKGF
UniProt P48730: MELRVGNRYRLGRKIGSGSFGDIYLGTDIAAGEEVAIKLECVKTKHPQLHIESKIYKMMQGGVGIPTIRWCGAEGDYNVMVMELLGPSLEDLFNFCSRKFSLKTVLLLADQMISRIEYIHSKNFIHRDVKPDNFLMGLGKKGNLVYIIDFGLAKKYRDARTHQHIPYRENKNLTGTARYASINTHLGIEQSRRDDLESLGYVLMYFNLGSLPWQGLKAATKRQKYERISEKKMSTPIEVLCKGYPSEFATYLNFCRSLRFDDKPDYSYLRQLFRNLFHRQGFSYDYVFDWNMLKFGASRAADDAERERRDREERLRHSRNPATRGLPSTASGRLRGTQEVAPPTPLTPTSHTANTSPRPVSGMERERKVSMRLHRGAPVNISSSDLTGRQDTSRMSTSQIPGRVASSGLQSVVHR
UniProt Q9Y463, whole entry, looked up: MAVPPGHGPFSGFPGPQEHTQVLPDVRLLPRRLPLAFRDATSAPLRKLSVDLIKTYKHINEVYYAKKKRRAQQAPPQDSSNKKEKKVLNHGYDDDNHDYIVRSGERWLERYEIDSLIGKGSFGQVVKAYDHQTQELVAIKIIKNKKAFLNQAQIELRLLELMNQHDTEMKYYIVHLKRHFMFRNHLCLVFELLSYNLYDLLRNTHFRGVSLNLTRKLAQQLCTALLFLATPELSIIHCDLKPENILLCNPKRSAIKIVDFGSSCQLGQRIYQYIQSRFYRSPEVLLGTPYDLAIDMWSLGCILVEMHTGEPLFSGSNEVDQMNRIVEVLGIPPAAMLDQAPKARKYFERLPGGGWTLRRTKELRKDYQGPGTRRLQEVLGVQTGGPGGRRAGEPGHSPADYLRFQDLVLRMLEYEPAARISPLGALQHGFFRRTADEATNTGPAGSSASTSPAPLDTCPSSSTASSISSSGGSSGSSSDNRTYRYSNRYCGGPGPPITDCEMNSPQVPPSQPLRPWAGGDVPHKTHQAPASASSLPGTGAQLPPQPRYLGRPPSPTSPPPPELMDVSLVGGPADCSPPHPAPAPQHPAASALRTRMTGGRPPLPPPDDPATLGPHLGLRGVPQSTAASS
UniProt Q92630: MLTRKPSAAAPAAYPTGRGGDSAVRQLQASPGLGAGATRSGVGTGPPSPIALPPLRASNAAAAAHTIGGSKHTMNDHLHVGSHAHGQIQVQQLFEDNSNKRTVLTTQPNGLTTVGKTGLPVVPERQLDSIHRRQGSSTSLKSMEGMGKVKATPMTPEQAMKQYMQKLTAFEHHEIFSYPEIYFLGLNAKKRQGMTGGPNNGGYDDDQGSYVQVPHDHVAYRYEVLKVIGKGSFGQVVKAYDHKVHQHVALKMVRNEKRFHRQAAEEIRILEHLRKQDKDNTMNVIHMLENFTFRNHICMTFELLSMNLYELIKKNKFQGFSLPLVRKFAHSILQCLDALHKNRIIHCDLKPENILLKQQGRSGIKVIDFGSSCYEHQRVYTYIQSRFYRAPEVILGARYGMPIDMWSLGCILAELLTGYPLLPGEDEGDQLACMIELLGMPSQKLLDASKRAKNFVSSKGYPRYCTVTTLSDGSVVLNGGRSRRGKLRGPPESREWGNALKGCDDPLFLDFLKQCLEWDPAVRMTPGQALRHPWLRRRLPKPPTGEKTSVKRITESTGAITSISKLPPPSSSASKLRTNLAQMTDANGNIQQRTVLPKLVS

Tests used:
Assay in all cases: kinase-Nluc reporter destabilization hit call (1 = scored as downregulated) (binary); higher = compound decreases kinase abundance
Details in all cases: K562; 2-18 h
BRAF_V600E = test system: BRAF_V600E
BTK = BTK (UniProt Q06187)
CAMK2A = CAMK2A (UniProt Q9UQM7)
CAMK2G = CAMK2G (UniProt Q13555)
CDK10 = CDK10 (UniProt Q15131)
CDK2 = CDK2 (UniProt P24941)
CDK3 = CDK3 (UniProt Q00526)
CDK4 = CDK4 (UniProt P11802)
CDK5 = CDK5 (UniProt Q00535)
CDK6 = CDK6 (UniProt Q00534)
CDK7 = CDK7 (UniProt P50613)
CDK9 = CDK9 (UniProt P50750)
CHEK2 = CHEK2 (UniProt O96017)
CSF1R = CSF1R (UniProt P07333)
CSK = CSK (UniProt P41240)
CSNK1A1 = CSNK1A1 (UniProt P48729)
CSNK1D = CSNK1D (UniProt P48730)
DDR1 = DDR1 (UniProt Q08345)
DYRK1B = DYRK1B (UniProt Q9Y463)
DYRK2 = DYRK2 (UniProt Q92630)

Measured: kinase-Nluc reporter destabilization hit call

COc1ccc(N(C(=O)Oc2c(C)cccc2C)c2ccnc(Nc3ccc(N4CCN(C)CC4)cc3)n2)c(OC)c1 (2.5 µM)
inactive: BRAF_V600E 0 | BTK 0 | CAMK2A 0 | CAMK2G 0 | CDK10 = 0 | CDK2 = 0 | CDK3 = 0 | CDK4 = 0 | CDK5 = 0 | CDK6 = 0 | CDK7 = 0 | CDK9 = 0 | CHEK2 = 0 | CSF1R 0 | CSK 0 | CSNK1A1 = 0 | CSNK1D 0 | DDR1 = 0 | DYRK1B 0 | DYRK2 = 0

COc1ccc2c(c1OC)C(OC)N(C)c1c-2ccc2cc3c(cc12)OCO3 (stereo not given) [Angoline] (10 µM)
inactive: BRAF_V600E 0 | BTK 0 | CAMK2A 0 | CAMK2G 0 | CDK10 = 0 | CDK2 = 0 | CDK3 = 0 | CDK4 = 0 | CDK5 = 0 | CDK6 = 0 | CDK7 = 0 | CDK9 = 0 | CHEK2 = 0 | CSF1R 0 | CSK 0 | CSNK1A1 = 0 | CSNK1D 0 | DDR1 = 0 | DYRK1B 0 | DYRK2 = 0

C[C@H](Nc1ncnc2[nH]cnc12)c1nc2ccc(F)cc2c(=O)n1-c1ccccc1 [Acalisib] (10 µM)
inactive: BRAF_V600E 0 | BTK 0 | CAMK2A 0 | CAMK2G 0 | CDK10 = 0 | CDK2 = 0 | CDK3 = 0 | CDK4 = 0 | CDK5 = 0 | CDK6 = 0 | CDK7 = 0 | CDK9 = 0 | CHEK2 = 0 | CSF1R 0 | CSK 0 | CSNK1A1 = 0 | CSNK1D 0 | DDR1 = 0 | DYRK1B 0 | DYRK2 = 0

O=C1C=CC[C@@H]2[C@H]3CCCN4CCC[C@@H](CN12)[C@@H]34 [Sophocarpine] (10 µM)
inactive: BRAF_V600E 0 | BTK 0 | CAMK2A 0 | CAMK2G 0 | CDK10 = 0 | CDK2 = 0 | CDK3 = 0 | CDK4 = 0 | CDK5 = 0 | CDK6 = 0 | CDK7 = 0 | CDK9 = 0 | CHEK2 = 0 | CSF1R 0 | CSK 0 | CSNK1A1 = 0 | CSNK1D 0 | DDR1 = 0 | DYRK1B 0 | DYRK2 = 0

NCCc1cn(S(=O)(=O)c2c(Cl)nc3sccn23)c2ccccc12 (10 µM)
inactive: BRAF_V600E 0 | BTK 0 | CAMK2A 0 | CAMK2G 0 | CDK10 = 0 | CDK2 = 0 | CDK3 = 0 | CDK4 = 0 | CDK5 = 0 | CDK6 = 0 | CDK7 = 0 | CDK9 = 0 | CHEK2 = 0 | CSF1R 0 | CSK 0 | CSNK1A1 = 0 | CSNK1D 0 | DDR1 = 0 | DYRK1B 0 | DYRK2 = 0

CC1C(=O)OC2C(O)C34C5OC(=O)C3(OC3OC(=O)C(O)C34C(C(C)(C)C)C5O)C12O (stereo not given) [Ginkgolide C] (10 µM)
inactive: BRAF_V600E 0 | BTK 0 | CAMK2A 0 | CAMK2G 0 | CDK10 = 0 | CDK2 = 0 | CDK3 = 0 | CDK4 = 0 | CDK5 = 0 | CDK6 = 0 | CDK7 = 0 | CDK9 = 0 | CHEK2 = 0 | CSF1R 0 | CSK 0 | CSNK1A1 = 0 | CSNK1D 0 | DDR1 = 0 | DYRK1B 0 | DYRK2 = 0

O=C1C=CC[C@@H]2[C@H]3CCCN4CCC[C@@H](CN12)[C@@H]34 [Sophocarpine (monohydrate)] (2.5 µM)
inactive: BRAF_V600E 0 | BTK 0 | CAMK2A 0 | CAMK2G 0 | CDK10 = 0 | CDK2 = 0 | CDK3 = 0 | CDK4 = 0 | CDK5 = 0 | CDK6 = 0 | CDK7 = 0 | CDK9 = 0 | CHEK2 = 0 | CSF1R 0 | CSK 0 | CSNK1A1 = 0 | CSNK1D 0 | DDR1 = 0 | DYRK1B 0 | DYRK2 = 0

C[C@H]1CC[C@]2(NC1)O[C@H]1C[C@H]3[C@@H]4CC[C@H]5C[C@@H](O)CC[C@]5(C)[C@H]4CC[C@]3(C)[C@H]1[C@@H]2C [Tomatidine (hydrochloride)] (10 µM)
inactive: BRAF_V600E 0 | BTK 0 | CAMK2A 0 | CAMK2G 0 | CDK10 = 0 | CDK2 = 0 | CDK3 = 0 | CDK4 = 0 | CDK5 = 0 | CDK6 = 0 | CDK7 = 0 | CDK9 = 0 | CHEK2 = 0 | CSF1R 0 | CSK 0 | CSNK1A1 = 0 | CSNK1D 0 | DDR1 = 0 | DYRK1B 0 | DYRK2 = 0

CCOC(=O)c1c(/C(C#N)=C\N)c2ccc(Cl)c(Cl)c2n1C (10 µM)
inactive: BRAF_V600E 0 | BTK 0 | CAMK2A 0 | CAMK2G 0 | CDK10 = 0 | CDK2 = 0 | CDK3 = 0 | CDK4 = 0 | CDK5 = 0 | CDK6 = 0 | CDK7 = 0 | CDK9 = 0 | CHEK2 = 0 | CSF1R 0 | CSK 0 | CSNK1A1 = 0 | CSNK1D 0 | DDR1 = 0 | DYRK1B 0 | DYRK2 = 0

C[C@H](CCC(=O)O)C[C@H](C)C[C@H](C)C(=O)/C=C(\O)[C@H](C)C[C@H](C)C/C=C/[C@@H](C)[C@@H](O)[C@@H](C)[C@@H](O)C[C@@H]1CC[C@@](C)([C@H]2CC[C@@](C)([C@@H](C)O)O2)O1 [Ionomycin (calcium)] (2.5 µM)
inactive: BRAF_V600E 0 | BTK 0 | CAMK2A 0 | CAMK2G 0 | CDK10 = 0 | CDK2 = 0 | CDK3 = 0 | CDK4 = 0 | CDK5 = 0 | CDK6 = 0 | CDK7 = 0 | CDK9 = 0 | CHEK2 = 0 | CSF1R 0 | CSK 0 | CSNK1A1 = 0 | CSNK1D 0 | DDR1 = 0 | DYRK1B 0 | DYRK2 = 0

C=C[C@H]1CN2CC[C@]3(C(=O)Nc4ccccc43)[C@@H]2C[C@@H]1/C(=C\OC)C(=O)OC [Corynoxeine] (2 µM)
inactive: BRAF_V600E 0 | BTK 0 | CAMK2A 0 | CAMK2G 0 | CDK10 = 0 | CDK2 = 0 | CDK3 = 0 | CDK4 = 0 | CDK5 = 0 | CDK6 = 0 | CDK7 = 0 | CDK9 = 0 | CHEK2 = 0 | CSF1R 0 | CSK 0 | CSNK1A1 = 0 | CSNK1D 0 | DDR1 = 0 | DYRK1B 0 | DYRK2 = 0

Looked up one by one from the entries so far (2):
O=C1C=CC[C@@H]2[C@H]3CCCN4CCC[C@@H](CN12)[C@@H]34 [Sophocarpine (monohydrate)] (2.5 µM)
inactive: BRAF_V600E 0 | BTK 0 | CAMK2A 0 | CAMK2G 0 | CDK10 = 0 | CDK2 = 0 | CDK3 = 0 | CDK4 = 0 | CDK5 = 0 | CDK6 = 0 | CDK7 = 0 | CDK9 = 0 | CHEK2 = 0 | CSF1R 0 | CSK 0 | CSNK1A1 = 0 | CSNK1D 0 | DDR1 = 0 | DYRK1B 0 | DYRK2 = 0

C[C@H](CCC(=O)O)C[C@H](C)C[C@H](C)C(=O)/C=C(\O)[C@H](C)C[C@H](C)C/C=C/[C@@H](C)[C@@H](O)[C@@H](C)[C@@H](O)C[C@@H]1CC[C@@](C)([C@H]2CC[C@@](C)([C@@H](C)O)O2)O1 [Ionomycin (calcium)] (2.5 µM)
inactive: BRAF_V600E 0 | BTK 0 | CAMK2A 0 | CAMK2G 0 | CDK10 = 0 | CDK2 = 0 | CDK3 = 0 | CDK4 = 0 | CDK5 = 0 | CDK6 = 0 | CDK7 = 0 | CDK9 = 0 | CHEK2 = 0 | CSF1R 0 | CSK 0 | CSNK1A1 = 0 | CSNK1D 0 | DDR1 = 0 | DYRK1B 0 | DYRK2 = 0

(continued)

C=CC(=O)N[C@H]1C=C(C)c2c(-c3cnc4ccccc4c3)c3c(N)ncnc3n2C1 (10 µM)
inactive: BRAF_V600E 0 | BTK 0 | CAMK2A 0 | CAMK2G 0 | CDK10 = 0 | CDK2 = 0 | CDK3 = 0 | CDK4 = 0 | CDK5 = 0 | CDK6 = 0 | CDK7 = 0 | CDK9 = 0 | CHEK2 = 0 | CSF1R 0 | CSK 0 | CSNK1A1 = 0 | CSNK1D 0 | DDR1 = 0 | DYRK1B 0 | DYRK2 = 0

COC[C@H]1OC(=O)c2coc3c2[C@@]1(C)C1=C(C3=O)[C@@H]2CCC(=O)[C@@]2(C)C[C@H]1OC(C)=O [Wortmannin] (2.5 µM)
inactive: BRAF_V600E 0 | BTK 0 | CAMK2A 0 | CAMK2G 0 | CDK10 = 0 | CDK2 = 0 | CDK3 = 0 | CDK4 = 0 | CDK5 = 0 | CDK6 = 0 | CDK7 = 0 | CDK9 = 0 | CHEK2 = 0 | CSF1R 0 | CSK 0 | CSNK1A1 = 0 | CSNK1D 0 | DDR1 = 0 | DYRK1B 0 | DYRK2 = 0

C[C@H]1CC[C@]2(NC1)O[C@H]1C[C@H]3[C@@H]4CC[C@H]5C[C@@H](O)CC[C@]5(C)[C@H]4CC[C@]3(C)[C@H]1[C@@H]2C [Tomatidine] (2 µM)
inactive: BRAF_V600E 0 | BTK 0 | CAMK2A 0 | CAMK2G 0 | CDK10 = 0 | CDK2 = 0 | CDK3 = 0 | CDK4 = 0 | CDK5 = 0 | CDK6 = 0 | CDK7 = 0 | CDK9 = 0 | CHEK2 = 0 | CSF1R 0 | CSK 0 | CSNK1A1 = 0 | CSNK1D 0 | DDR1 = 0 | DYRK1B 0 | DYRK2 = 0
